In US20050287643A1 (YALE UNIVERSITY, published 2005):
No constants are given. Whether binding was seen depends on the method and setting. Some results given as binding are weak or reduced against the parent protein; the word gives no strength.

Protein sequences, listed by entry. Tags and fused reporters are not part of them. Lines headed by an entry give the natural chain unless they say otherwise; changes in a name come on top. Residues count along the entry.
UniProt Q03173, residues 1-112: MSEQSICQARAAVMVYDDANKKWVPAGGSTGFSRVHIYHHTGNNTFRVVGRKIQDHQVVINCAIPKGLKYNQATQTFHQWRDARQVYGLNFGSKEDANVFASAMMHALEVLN
UniProt P33379: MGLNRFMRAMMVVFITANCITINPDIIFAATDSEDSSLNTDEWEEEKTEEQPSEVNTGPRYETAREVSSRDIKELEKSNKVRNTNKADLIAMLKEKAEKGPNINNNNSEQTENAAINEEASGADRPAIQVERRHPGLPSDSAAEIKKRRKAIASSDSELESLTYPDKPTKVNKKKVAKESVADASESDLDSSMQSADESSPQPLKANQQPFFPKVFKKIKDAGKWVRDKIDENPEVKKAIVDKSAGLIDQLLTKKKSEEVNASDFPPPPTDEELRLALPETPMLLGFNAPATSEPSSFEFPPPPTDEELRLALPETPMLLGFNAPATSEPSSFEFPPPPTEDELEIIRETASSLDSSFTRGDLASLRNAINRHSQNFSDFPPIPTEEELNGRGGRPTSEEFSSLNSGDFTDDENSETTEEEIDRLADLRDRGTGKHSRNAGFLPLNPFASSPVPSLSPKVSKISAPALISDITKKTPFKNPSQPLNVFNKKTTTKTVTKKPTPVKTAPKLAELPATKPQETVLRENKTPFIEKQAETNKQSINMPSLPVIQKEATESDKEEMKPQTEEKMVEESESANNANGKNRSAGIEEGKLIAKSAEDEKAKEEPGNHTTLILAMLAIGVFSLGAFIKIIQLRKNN

Molecular target: Mena1-112 EVH1 domain (UniProt Q03173)
Experiment: tryptophan fluorescence perturbation

## ActA11 (from UniProt P33379 298-308) (peptide)
  binding: binds
